± gives the standard deviation of the averaged measurements. Most values lie at the level of the controls, where differences are scatter.
Columns and labels:
Test in all cases: level (log10 ratio to DMSO vehicle control); higher = higher biomarker level / cell amount than vehicle control
[1] = compound: C=C(C)C(=O)OCC(F)(F)C(F)(F)C(F)(F)C(F)(F)C(F)(F)C(F)(F)C(F)(F)F; details: in DMSO
Experimental: (§1)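 BioMAP Diversity Plus panel of 12 human primary cell co-culture systems (3C, 4H, LPS, SAg, BT, BF4T, BE3C, CASM3C, HDF3CGF, KF3CT, MyoF, Mphg). Compounds were added 1 h before stimulation and left for 24 h (MyoF 48 h; BT 72 h for soluble read-outs or 6 d for IgG). Biomarkers were read by ELISA, cytotoxicity by SRB, PBMC viability and proliferation by Alamar Blue. Each well value was divided by the mean of 8 DMSO control wells on the same plate and log10 transformed; duplicate blinded samples were tested at 4 concentrations.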

[2] = compound: C=CC(=O)OCC(F)(F)C(F)(F)C(F)(F)C(F)(F)C(F)(F)C(F)(F)C(F)(F)F [1H,1H-Perfluorooctyl acrylate]; details: 2200 nM; in DMSO
Experimental: as §1

[3] = compound: C=CC(F)(F)C(F)(F)C(F)(F)C(F)(F)C(F)(F)C(F)(F)C(F)(F)C(F)(F)C=C [1,8-Divinylperfluorooctane]; details: in DMSO
Experimental: as §1

[4] = compound: COC(=O)C(F)(F)C(F)(F)OC(F)(C(F)(F)F)C(F)(F)OC(F)=C(F)F [Methyl perfluoro(3-(1-ethenyloxypropan-2-yloxy)propanoate)]; details: in DMSO
Experimental: as §1

[5] = compound: CO[Si](C)(CCC(F)(F)C(F)(F)C(F)(F)C(F)(F)C(F)(F)C(F)(F)F)OC [Dimethoxymethyl((perfluorohexyl)ethyl)silane]; details: in DMSO
Experimental: as §1

[6] = compound: FC(F)(F)C(F)(F)C(F)(F)CC1CO1 [1H,1H-Heptafluorobutyl epoxide]; details: 2200 nM; in DMSO
Experimental: as §1

[7] = compound: FC(F)(F)C(F)(F)C(F)(F)CI [Heptafluorobutyl iodide]; details: 2200 nM; in DMSO
Experimental: as §1

[8] = compound: NC(=O)C(F)(F)C(F)(F)C(F)(F)C(F)F; details: in DMSO
Experimental: as §1

[9] = compound: NC(=O)C(F)(F)C(F)(F)F [Pentafluoropropionamide]; details: 2200 nM; in DMSO
Experimental: as §1

[10] = compound: NS(=O)(=O)C(F)(F)C(F)(F)C(F)(F)C(F)(F)C(F)(F)C(F)(F)C(F)(F)C(F)(F)F [Perfluorooctanesulfonamide]; details: in DMSO
Experimental: as §1

[11] = compound: O=C(O)C(F)(F)C(F)(F)C(F)F [4H-Perfluorobutanoic acid]; details: in DMSO
Experimental: as §1

[12] = compound: O=P(O)(O)CCC(F)(F)C(F)(F)C(F)(F)C(F)(F)C(F)(F)C(F)(F)F [2-(Perfluorohexyl)ethylphosphonic acid]; details: 2200 nM; in DMSO
Experimental: as §1

[13] = compound: O=S(=O)(F)C(F)(F)C(F)(F)C(F)(F)C(F)(F)C(F)(F)C(F)(F)C(F)(F)C(F)(F)F [Perfluorooctanesulfonyl fluoride]; details: 2200 nM; in DMSO
Experimental: as §1

[14] = compound: O=S(=O)(O)C(F)(F)C(F)(F)C(F)(F)C(F)(F)C(F)(F)C(F)(F)C(F)(F)C(F)(F)F [Perfluorooctanesulfonic acid]; details: 2200 nM; in DMSO
Experimental: as §1

[15] = compound: O=S(=O)(O)C(F)(F)C(F)(F)C(F)(F)C(F)(F)C(F)(F)C(F)(F)C(F)(F)C(F)(F)F [Potassium perfluorooctanesulfonate]; details: 2200 nM; in DMSO
Experimental: as §1

[16] = compound: O=S(=O)(OCC(F)(F)F)C(F)(F)C(F)(F)C(F)(F)C(F)(F)F [2,2,2-Trifluoroethyl perfluorobutanesulfonate]; details: 2200 nM; in DMSO
Experimental: as §1

[17] = compound: OCC(F)(F)C(F)(F)C(F)(F)C(F)(F)C(F)(F)C(F)F [1H,1H,7H-Dodecafluoro-1-heptanol]; details: 2200 nM; in DMSO
Experimental: as §1

[18] = compound: OCCCCC(F)(F)C(F)(F)C(F)(F)C(F)(F)F [4:4 Fluorotelomer alcohol]; details: 2200 nM; in DMSO
Experimental: as §1

Row | Test System | level (log10) ([1]; 740 nM) | level (log10) ([1]; 2200 nM) | level (log10) [2] | level (log10) ([3]; 740 nM) | level (log10) ([3]; 2200 nM) | level (log10) ([4]; 740 nM) | level (log10) ([4]; 2200 nM) | level (log10) ([5]; 740 nM) | level (log10) ([5]; 2200 nM) | level (log10) [6] | level (log10) [7] | level (log10) ([8]; 2200 nM) | level (log10) ([8]; 6700 nM) | level (log10) ([8]; 20000 nM) | level (log10) ([8]; 60000 nM) | level (log10) [9] | level (log10) ([10]; 2200 nM) | level (log10) ([10]; 6700 nM) | level (log10) ([10]; 20000 nM) | level (log10) ([11]; 2200 nM) | level (log10) ([11]; 6700 nM) | level (log10) ([11]; 20000 nM) | level (log10) ([11]; 60000 nM) | level (log10) [12] | level (log10) [13] | level (log10) [14] | level (log10) [15] | level (log10) [16] | level (log10) [17] | level (log10) [18]
1 | CASM3C:SRB | 0.009 ± 0.0099 | -0.001 ± 0.0071 | -0.002 | -0.0025 ± 0.005 | -0.0035 ± 0.0035 | 0.002 ± 0.013 | 0.0055 ± 0.0021 | 0 ± 0.0014 | -0.002 ± 0.0028 | 0.0025 ± 0.012 | -0.0015 ± 0.00071 | -0.0095 ± 0.0064 | 0.0025 ± 0.00071 | -0.0115 ± 0.005 | -0.0085 ± 0.016 | 0.002 | 0.005 | 0.0075 ± 0.011 | -0.0075 ± 0.0021 | -0.0015 ± 0.0064 | -0.0015 ± 0.0078 | -0.002 ± 0.0071 | 0 ± 0.0099 | 0.0075 ± 0.0021 | -0.0025 ± 0.0021 | 0.003 | 0.0015 ± 0.00071 | -0.0065 ± 0.005 | -0.001 ± 0.0057 | 0.013 ± 0.0099
2 | LPS:CD106/VCAM-1 | -0.0285 ± 0.015 | -0.0175 ± 0.00071 | 0 ± 0.0057 | -0.0055 ± 0.0064 | -0.01 ± 0.0028 | -0.0555 ± 0.0035 | -0.0535 ± 0.011 | 0.001 ± 0.0028 | -0.007 ± 0.023 | 0.0105 ± 0.042 | -0.022 ± 0.014 | -0.022 ± 0.038 | -0.0055 ± 0.025 | -0.023 ± 0.041 | -0.015 ± 0.025 | -0.0185 ± 0.0035 | 0.0405 ± 0.005 | 0.0075 ± 0.0035 | 0.0115 ± 0.016 | -0.0065 ± 0.03 | -0.018 ± 0.0071 | -0.0245 ± 0.011 | -0.002 ± 0.025 | 0.002 ± 0.02 | 0.0005 ± 0.0064 | 0.002 ± 0.0085 | -0.0045 ± 0.037 | 0.0105 ± 0.049 | -0.0045 ± 0.0078 | 0.004 ± 0.017
3 | SAg:Proliferation | 0.0145 ± 0.026 | -0.0005 ± 0.0021 | -0.0165 ± 0.056 | 0.009 ± 0.034 | 0.0245 ± 0.035 | 0.0045 ± 0.042 | -0.0065 ± 0.005 | 0.0155 ± 0.12 | 0.0045 ± 0.083 | 0.006 ± 0.0042 | -0.024 ± 0.076 | -0.0075 ± 0.00071 | -0.0135 ± 0.018 | 0.0105 ± 0.0064 | 0.033 ± 0.018 | 0.004 ± 0.03 | -0.0155 ± 0.057 | -0.031 ± 0.042 | -0.0445 ± 0.036 | -0.025 ± 0.014 | -0.0545 ± 0.026 | -0.0325 ± 0.025 | -0.0145 ± 0.03 | -0.0155 ± 0.013 | -0.006 ± 0.058 | 0.005 ± 0.083 | 0.0215 ± 0.043 | 0.035 ± 0.033 | 0.012 ± 0.014 | -0.018 ± 0.023
4 | lMphg:SRB-Mphg | 0.056 ± 0.055 | 0.064 ± 0.017 | 0.014 ± 0.018 | 0.021 ± 0.011 | 0.018 ± 0.0014 | 0.012 ± 0.016 | 0.0005 ± 0.00071 | 0.0445 ± 0.026 | 0.008 | -0.003 | 0.005 ± 0.024 | 0.012 ± 0.02 | 0.0005 ± 0.013 | -0.0045 ± 0.015 | 0.013 ± 0.027 | 0.0405 ± 0.0035 | -0.0045 ± 0.012 | -0.0005 ± 0.0064 | -0.027 ± 0.016 | 0.001 ± 0.071 | -0.009 ± 0.075 | -0.015 ± 0.054 | 0 ± 0.027 | 0.012 ± 0.028 | 0.0005 ± 0.03 | 0.007 ± 0.016 | 0.019 ± 0.0057 | -0.0035 ± 0.0021 | -0.019 ± 0.092 | 0.001 ± 0.023
5 | HDF3CGF:EGFR | -0.037 ± 0.0042 | -0.0025 ± 0.019 | -0.19 ± 0.02 | -0.033 ± 0.0085 | 0.0155 ± 0.0092 | 0.01 ± 0.075 | -0.0305 ± 0.042 | 0.01 ± 0.033 | -0.007 ± 0.0028 | 0.022 ± 0.028 | -0.061 ± 0.051 | 0.006 ± 0.034 | 0.001 ± 0.033 | 0.0025 ± 0.046 | 0.0125 ± 0.043 | -0.031 ± 0.011 | 0.0275 ± 0.03 | -0.016 ± 0.014 | -0.171 ± 0.016 | 0.036 ± 0.076 | -0.0155 ± 0.054 | 0.0005 ± 0.019 | 0.0725 ± 0.12 | -0.005 ± 0.078 | -0.0965 ± 0.2 | -0.0145 ± 0.039 | 0.0165 ± 0.025 | 0.0325 ± 0.033 | 0.018 ± 0.057 | -0.0065 ± 0.028
6 | MyoF:TIMP-1 | 0.0295 ± 0.056 | 0.01 ± 0.018 | 0.0095 ± 0.0092 | -0.0565 ± 0.059 | -0.0165 ± 0.049 | 0.023 ± 0.023 | 0.0185 ± 0.018 | -0.0255 ± 0.005 | -0.0195 ± 0.00071 | -0.0455 ± 0.096 | -0.0645 ± 0.094 | -0.0435 ± 0.023 | -0.031 ± 0.011 | -0.024 ± 0.023 | -0.0505 ± 0.00071 | -0.0615 ± 0.049 | 0.0265 ± 0.022 | -0.007 ± 0.027 | -0.098 ± 0.018 | 0.026 ± 0.011 | 0.0045 ± 0.039 | 0.023 ± 0.016 | 0.0465 ± 0.076 | -0.039 ± 0.037 | -0.0085 ± 0.022 | 0.0285 ± 0.015 | 0.0405 ± 0.094 | -0.018 ± 0.017 | -0.0165 ± 0.047 | 0.0335 ± 0.042
7 | CASM3C:CCL2/MCP-1 | 0.0155 ± 0.03 | -0.009 ± 0.02 | 0.0035 ± 0.026 | 0.005 ± 0.035 | -0.018 ± 0.037 | 0.0065 ± 0.037 | -0.004 ± 0.0057 | 0.0165 ± 0.042 | 0.0025 ± 0.005 | 0.002 ± 0.0028 | 0.0205 ± 0.025 | 0.0035 ± 0.037 | -0.0055 ± 0.013 | -0.011 ± 0.018 | 0.015 ± 0.045 | 0.012 ± 0.024 | 0.0255 ± 0.00071 | 0.01 ± 0.013 | 0.01 ± 0.023 | -0.013 ± 0.018 | 0.006 | -0.0065 ± 0.012 | 0.0065 ± 0.016 | 0.002 ± 0.034 | -0.007 ± 0.025 | 0.014 ± 0.076 | 0.0155 ± 0.069 | -0.01 ± 0.037 | -0.002 ± 0.014 | 0.033 ± 0.048
8 | CASM3C:CXCL8/IL-8 | 0.018 ± 0.023 | -0.0065 ± 0.021 | -0.0005 ± 0.022 | 0.001 ± 0.018 | -0.015 ± 0.013 | 0.008 ± 0.034 | -0.0025 ± 0.0021 | 0.004 ± 0.0085 | 0.0005 ± 0.0078 | 0.0035 ± 0.021 | 0.007 ± 0.0028 | -0.0035 ± 0.0078 | -0.006 | -0.006 | 0.004 ± 0.031 | 0.0165 ± 0.0021 | 0.006 ± 0.0042 | -0.0055 ± 0.0035 | -0.0125 ± 0.0035 | 0.015 ± 0.04 | -0.003 ± 0.0057 | 0.004 ± 0.0042 | 0.0135 ± 0.033 | -0.009 ± 0.017 | 0.0105 ± 0.005 | 0.023 ± 0.059 | 0.0245 ± 0.021 | 0.0465 ± 0.012 | 0.003 ± 0.013 | 0.041 ± 0.05

— the supplement of paper PMC10331698
